# Assay results: the supplement of paper PMC3682954
# Counter-ions that a name gives are not always drawn. ± gives the standard deviation of the averaged measurements. This is one part of the list. Most values come without repeats; read them as rough.
# Test system: RAW 264.7
# Experiment: cell viability (MTT) relative to vehicle control; higher = more viable cells
# Conditions: stimulus: HMGB1 5 ug/ml, 18 h
# [1] = compound concentration: 1 ug/ml
SMILES,cell viability [1] [%],cell viability (compound concentration: 3 uM) [%]
Cc1cccc(-c2cc(=O)c3cc(Br)ccc3o2)c1 [6-Bromo-3'-methylflavone],102,
CCCCc1oc2ccccc2c1C(=O)c1cc(I)c(OCCN(CC)CC)c(I)c1,,97.5 ± 4.3
CCCCc1oc2ccccc2c1C(=O)c1cc(I)c(OCCN(CC)CC)c(I)c1 [Amiodarone],,112
CCCCc1oc2ccccc2c1C(=O)c1cc(I)c(OCCN(CC)CC)c(I)c1 [Amiodarone hydrochloride],,119 ± 19
O=C(O)c1cccnc1,,108
O=C(O)c1cccnc1 [Niacin],,112
O=C(O)c1cc2cc(F)ccc2[nH]1 [5-Fluoroindole-2-carboxylic acid],,99.2
CCN1CCCC1CNC(=O)c1cc(S(N)(=O)=O)ccc1OC (configuration not stated) [Sulpiride],,88.1
CCN1CCCC1CNC(=O)c1cc(S(N)(=O)=O)ccc1OC (configuration not stated),,104
"CC1(C)OC2[C@@H](O1)[C@H](n1cnc3c(N)ncnc31)O[C@@H]2CO (some centres not stated) [2',3'-O-Isopropylideneadenosine]",92.7,
CC12CC3CC(C)(C1)CC(N)(C3)C2,,102 ± 14
CC12CC3CC(C)(C1)CC(N)(C3)C2 [Memantine Hydrochloride],,96.8
CC12CC3CC(C)(C1)CC(N)(C3)C2 [Memantine],,99.5
CC12CC3CC(C)(C1)CC(N)(C3)C2 [Memantine hydrochloride],,118
N[C@@H](Cc1cnc[nH]1)C(=O)Nc1ccc2ccccc2c1 [L-Histidine beta-naphthylamide],97.5,
CCOc1ccc(Cc2nccc3cc(OCC)c(OCC)cc23)cc1OCC [Ethaverine hydrochloride],,100
CCOc1ccc(Cc2nccc3cc(OCC)c(OCC)cc23)cc1OCC,,109
O=C(Nc1ccc([N+](=O)[O-])cc1Cl)c1cc(Cl)ccc1O [Niclosamide],,48.6 ± 14
O=C(Nc1ccc([N+](=O)[O-])cc1Cl)c1cc(Cl)ccc1O,,51.7 ± 22
C#C[C@]1(O)CC[C@H]2[C@@H]3CCC4=Cc5oncc5C[C@]4(C)[C@H]3CC[C@@]21C [Danazol],,101 ± 4.2
C#C[C@]1(O)CC[C@H]2[C@@H]3CCC4=Cc5oncc5C[C@]4(C)[C@H]3CC[C@@]21C,,98.1

# Single records, from the list above.
# C#C[C@]1(O)CC[C@H]2[C@@H]3CCC4=Cc5oncc5C[C@]4(C)[C@H]3CC[C@@]21C [Danazol] in the list: cell viability (compound concentration: 3 uM) [%]: 101 ± 4.2
# CCCCc1oc2ccccc2c1C(=O)c1cc(I)c(OCCN(CC)CC)c(I)c1 [Amiodarone] in the list: cell viability (compound concentration: 3 uM) [%]: 112

# (further entries)

SMILES,cell viability [1] [%],cell viability (compound concentration: 3 uM) [%]
Nc1ccc(S(=O)(=O)O)cc1.Nc1ccc(S(=O)(=O)O)cc1.[Zn],,98.4
COc1ccc(-c2cc(=O)c3c(OC)c(OC)c(OC)c(OC)c3o2)cc1OC [Nobiletin],,87.7
COc1ccc(-c2cc(=O)c3c(OC)c(OC)c(OC)c(OC)c3o2)cc1OC,,121
CN1CCCN=C1/C=C/c1cccs1 [Pyrantel tartrate],,110
CN1CCCN=C1/C=C/c1cccs1,,96.4
CN1CCCN=C1/C=C/c1cccs1 [Pyrantel Pamoate],,80.9
CCC[C@@H]1C[C@@H](C(=O)N[C@@H]([C@H]2O[C@H](SC)[C@H](O)[C@@H](O)[C@H]2O)[C@@H](C)O)N(C)C1 [Lincomycin],,111
CCC[C@@H]1C[C@@H](C(=O)N[C@@H]([C@H]2O[C@H](SC)[C@H](O)[C@@H](O)[C@H]2O)[C@@H](C)O)N(C)C1 [Lincomycin hydrochloride],,101
CCC[C@@H]1C[C@@H](C(=O)N[C@@H]([C@H]2O[C@H](SC)[C@H](O)[C@@H](O)[C@H]2O)[C@@H](C)O)N(C)C1,,104
CCOC1O[C@H]([C@@H](COCc2ccccc2)OCc2ccccc2)[C@H](OCc2ccccc2)[C@H]1O (some centres not stated) [Tribenoside],,104
c1cc(CN2CCCCC2)cc(OCCCNc2nc3ccccc3s2)c1,,108
CNCC(O)c1ccc(O)c(O)c1 (configuration not stated) [Racepinephrine HCl],,113
CCOC(=O)[C@@H](C)Oc1cccc2c(=O)n(CC(=O)Nc3ccc4c(c3)OCCO4)ccc12,,94.8
O=C(O)C1=C(CSc2nnnn2CS(=O)(=O)O)CS[C@@H]2[C@H](NC(=O)[C@H](O)c3ccccc3)C(=O)N12,,104
CCCCCCOc1ccccc1C(N)=O,,113
c1ccc2c(c1)CC(N1CCN(c3cccc4c3OCCO4)CC1)C2,,117
Cc1cc2c(C(C)C)c(O)c(O)c3c2c(c1-c1c(C)cc2c(C(C)C)c(O)c(O)c4c2c1OC4N)OC3N (configuration not stated),121,
NC[C@H](O)c1ccc(O)c(O)c1,,101
CCN(CC)CCNC(=O)c1ccc(N)cc1 [Procainamide],,114
CCN(CC)CCNC(=O)c1ccc(N)cc1 [Procainamide hydrochloride],,96.5 ± 7.1
CCN(CC)CCNC(=O)c1ccc(N)cc1,,98.9

# Exported with tabs: part of the list above
SMILES	cell viability [1] [%]	cell viability (compound concentration: 3 uM) [%]
CC12CC3CC(C)(C1)CC(N)(C3)C2		102 ± 14
CC12CC3CC(C)(C1)CC(N)(C3)C2 [Memantine Hydrochloride]		96.8
CC12CC3CC(C)(C1)CC(N)(C3)C2 [Memantine]		99.5
CC12CC3CC(C)(C1)CC(N)(C3)C2 [Memantine hydrochloride]		118

# Remaining list, next part.

SMILES,cell viability [1] [%],cell viability (compound concentration: 3 uM) [%]
CC(=O)Nc1c(I)c(C(=O)N[C@H]2C(O)O[C@H](CO)[C@@H](O)[C@@H]2O)c(I)c(N(C)C(C)=O)c1I (some centres not stated) [Metrizamide],,114
CN[C@H]1CC[C@@H](c2ccc(Cl)c(Cl)c2)c2ccccc21 [Sertraline hydrochloride],,95.7
CN[C@H]1CC[C@@H](c2ccc(Cl)c(Cl)c2)c2ccccc21,,94.1
CN[C@H]1CC[C@@H](c2ccc(Cl)c(Cl)c2)c2ccccc21 [Sertraline],,82 ± 14
CCC(C)(C)N=C(NC#N)Nc1cccnc1,,101
C[C@@H]1CCC[C@H](C)N1NC(=O)c1ccc(Cl)c(S(N)(=O)=O)c1 [Clopamide],,98.7 ± 12
CC[C@H]1OC(=O)[C@H](C)[C@@H](O[C@H]2C[C@@](C)(OC)[C@@H](O)[C@H](C)O2)[C@H](C)[C@@H](O[C@@H]2O[C@H](C)C[C@H](N(C)C)[C@H]2O)[C@](C)(O)C[C@@H](C)CN(C)[C@H](C)[C@@H](O)[C@]1(C)O,,99.9
CC[C@H]1OC(=O)[C@H](C)[C@@H](O[C@H]2C[C@@](C)(OC)[C@@H](O)[C@H](C)O2)[C@H](C)[C@@H](O[C@@H]2O[C@H](C)C[C@H](N(C)C)[C@H]2O)[C@](C)(O)C[C@@H](C)CN(C)[C@H](C)[C@@H](O)[C@]1(C)O [Azithromycin],,104 ± 6.9
CC(C)[N+]1(C)[C@@H]2CC[C@H]1C[C@@H](OC(=O)C(CO)c1ccccc1)C2 (some centres not stated),,106
CC(C)[N+]1(C)[C@@H]2CC[C@H]1C[C@@H](OC(=O)C(CO)c1ccccc1)C2 (some centres not stated) [Ipratropium],,99.4
CC(C)[N+]1(C)[C@@H]2CC[C@H]1C[C@@H](OC(=O)C(CO)c1ccccc1)C2 (some centres not stated) [Ipratropium bromide],,102
COc1cc2cc(Oc3ccc4ccc(=O)oc4c3)c(=O)oc2cc1OC(C)=O [Daphnoretine Acetate],110,
O=C1c2ccccc2C(=O)c2c(O)c(O)cc(O)c21 [Purpurin],110,
Cc1ccc(-c2cc(C(F)(F)F)nn2-c2ccc(S(N)(=O)=O)cc2)cc1,,98.1
Cc1ccc(-c2cc(C(F)(F)F)nn2-c2ccc(S(N)(=O)=O)cc2)cc1 [Celecoxib],,98.8 ± 4.9
Nc1ccc(S(=O)(=O)Nc2nccs2)cc1 [Sulfathiazole],,96.1
Nc1ccc(S(=O)(=O)Nc2nccs2)cc1,,96.4
"CC(C)[C@H]1CC[C@H](C)C[C@@H]1O [(1S,2R,5S)-(+)-Menthol]",90,
CC(CNC1CCCCC1)OC(=O)c1ccccc1 (configuration not stated) [Hexylcaine hydrochloride],,127
Cc1cc2c(C(C)C)c(O)c(O)c(/C=N/Nc3cccc(Cl)n3)c2c(O)c1-c1c(C)cc2c(C(C)C)c(O)c(O)c(/C=N/Nc3cccc(Cl)n3)c2c1O,109,
COc1cc2ccc(=O)oc2c(O)c1O [Fraxetin],89.7,

SMILES,cell viability [1] [%],cell viability (compound concentration: 3 uM) [%]
CO/N=C(\C(=O)N[C@@H]1C(=O)N2C(C(=O)O)=C(COC(C)=O)CS[C@H]12)c1csc(N)n1 [Cefotaxime sodium salt],,75.5
CO/N=C(\C(=O)N[C@@H]1C(=O)N2C(C(=O)O)=C(COC(C)=O)CS[C@H]12)c1csc(N)n1 [Cefotaxime sodium],,103
CO/N=C(\C(=O)N[C@@H]1C(=O)N2C(C(=O)O)=C(COC(C)=O)CS[C@H]12)c1csc(N)n1 [Cefotaxime Acid],,93
CO/N=C(\C(=O)N[C@@H]1C(=O)N2C(C(=O)O)=C(COC(C)=O)CS[C@H]12)c1csc(N)n1,,106
COc1cc(CNC(=O)CCCC/C=C/C(C)C)ccc1O [Capsaicin],95.9,104 ± 10
COc1cc(CNC(=O)CCCC/C=C/C(C)C)ccc1O,,108
O=C(O)[C@@H]1[C@H]2C[C@H]3c4[nH]c5ccccc5c4CCN3C[C@@H]2CC[C@@H]1O [Yohimbinic acid monohydrate],88.6,
C[C@]12CC[C@@H]3c4ccc(O)cc4C[C@@H](CCCCCCCCC[S+]([O-])CCCC(F)(F)C(F)(F)F)[C@H]3[C@@H]1CC[C@@H]2O (some centres not stated) [Fulvestrant],,110 ± 2
COC(=O)[C@H](Cc1ccccc1)NC(=O)[C@@H](N)CC(=O)O,,106
C1CCC(N=C(NC23CC4CC(CC(C4)C2)C3)N2CCOCC2)CC1,,118
O=C(/C=C/c1ccc(O)c(O)c1)O[C@H](Cc1ccc(O)c(O)c1)C(=O)O [Rosmarinic acid],94.9,
CCCCOc1cc(C(=O)OCCN(CC)CC)ccc1N [Benoxinate hydrochloride],,105
NC(N)=N[C@@H](CCC(=O)O)C(=O)O [alpha-Guanidinoglutaric acid],,107
"NC(Cc1cnc[nH]1)C(=O)O (racemic) [DL-Histidine hydrochloride, monohydrate]",95.3,
C[N+](C)(C)CC(O)CC(=O)[O-] (configuration not stated),,105
"O=C(O)CCC(C(=O)O)N1C(=O)c2ccccc2C1=O [L-Glutamic acid, N-phthaloyl-]",,103
CC(C)Oc1ccc2c(=O)c(-c3ccccc3)coc2c1,,104 ± 9.9
CC(C)Oc1ccc2c(=O)c(-c3ccccc3)coc2c1 [Ipriflavone],92.2,
